Experimental data as given in publication PMC5320558, “The general PTS component HPr determines the preference for glucose over mannitol” (Scientific Reports, 2017).
No constants are given. Whether binding was seen depends on the method and setting. In cells and extracts the contact can be indirect. Here binding means that the protein was enriched with, or labelled near, the bait; the list need not be complete. No binding means not detected with the bait. Tags and fused reporters may be left off the sequences shown.

Biological target: T1, cytosolic region (residues 348-637) of MtlA covering the EIIA and EIIB domains, with a His tag at the N-terminus (E. coli) (UniProt P00550)
T1 sequence: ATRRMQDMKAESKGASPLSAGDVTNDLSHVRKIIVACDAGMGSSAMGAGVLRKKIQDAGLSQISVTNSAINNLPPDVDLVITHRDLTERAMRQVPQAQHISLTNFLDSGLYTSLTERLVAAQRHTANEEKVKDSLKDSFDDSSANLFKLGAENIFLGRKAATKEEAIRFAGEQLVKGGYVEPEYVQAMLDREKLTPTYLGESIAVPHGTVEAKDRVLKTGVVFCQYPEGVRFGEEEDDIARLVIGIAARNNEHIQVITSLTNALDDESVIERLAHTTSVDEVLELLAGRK
Test: affinity purification with mass spectrometry; ligand fishing: E. coli MG1655 lysate mixed with purified His-tagged bait (400 ug His-MtlR or 500 ug His-MtlA(cyto)) and TALON metal affinity resin, 4 °C, 30 min, buffer A (20 mM HEPES pH 7.5, 100 mM NaCl), eluted with 150 mM imidazole; SDS-PAGE, Coomassie; band identified by MALDI-TOF peptide mass fingerprinting; only the target purified

binding: no binding
Substance: histidine-containing phosphocarrier protein HPr of the PTS (endogenous) (from UniProt P0AA04 1-85)
